Results on one molecule are retold here after paper PMC8053501 (Diabetes, Metabolic Syndrome and Obesity: Targets and …, 2021).

This series can be described thus: in vivo. To be noted: male, ICR, mouse, po.

What is called Tmax is the time at which the peak concentration occurs.

Structures are written as SMILES.

As for `CC1=C(C(=O)O)N2C(=O)[C@@H](NC(=O)[C@H](N)c3ccccc3)[C@H]2SC1` [Cephalexin, cephalexin], the Tmax was determined as 1 h. Besides, the Tmax (3 mg/kg) amounted to 1 h.
